Out of some 52,000 sequences screened, about 210 (0.4%) were called active.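 Rule for the calls: active = gene whose silencing raises cell survival under the drug, median off-target-corrected z-score across its silencing RNAs 2 or more; inactive = the rest.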 The list shows a part of the results.

The nature of the assay: Resistance to Poly (ADP-Ribose) Polymerase inhibitor: Gene Identification via Genome-wide siRNA Screen. As to conditions: mouse BRCA2 R2336H ES cells, olaparib, CellTiter-Glo viability; stronger effect = higher value. The method, boiled down:
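Mouse BRCA2 R2336H ES cells were reverse-transfected with siRNA (20 nM final), treated at 48 h with 500 nM olaparib, and read by CellTiter-Glo after 72 h. Scores: MAD-based z per siRNA, median per gene, seed off-target correction.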
On the technique in general: ATP-based viability assays read luminescence as a measure of living cells.
In the case of GGACAGUCAAAAAUUGUUCTT against Cyp7b1, the z-score was inactive: 0.0197.

GGAGAAGGAGAAACAGAAATT against Tmepai: the z-score was inactive: -1.84.

Consider GGAGAUGGAUCACUUAAAUTT against Cdh6, for which the z-score was inactive: 0.706.

Regarding CCUAAUCUUCGUGCUUUACTT against Minpp1, the z-score is inactive: 0.968.

As to “GGCGAAGUAUCUGAUGAGGTT against A930027K05Rik”, the z-score is inactive: 1.

Regarding GCUUAUCGUAAAGUAGCACTT against Dnajb7, the z-score was inactive: 1.37.

As for GGAACUGAUAUCAUGUACATT against Slc25a5, the z-score is inactive: 0.748.

As for GGGAUGAAGUCCUGGAUAATT against Atp6v1g1, the z-score was inactive: -1.87.

For the sequence CGAUCUUCCGCUCUGACUCTT against Gm226, the z-score was inactive: -1.34.

For the sequence “GCACUGUCGCAUCAUCAGATT against D230025D16Rik”, the z-score was inactive: 1.44.

For the sequence GGGUGUUUGGUUGUGAUCUTT against Snx26, the z-score was inactive: -1.2.

As for GCUACUAUUCCAUCCAUCATT against Apg4b, the z-score was inactive: -0.363.

Consider GGACCAUGUGAUAAUAUCGTT against Als2, for which the z-score is inactive: 0.858.

Turning to GCUGAAGACCGACUACAAGTT against Cnih, the z-score is inactive: 0.86.

Turning to GGAGAUUGGAAGAAGAAAATT against Sash1, the z-score was inactive: -1.28.

On to GCCUAAAAACUCUAAAUCUTT against Mut, for which the z-score is inactive: -0.00594.

For the sequence GGCAAGAGUGUUUUCAUACTT against Insl6, the z-score was inactive: -1.16.

As to GCCCUGUUUUGAUCCAUGCTT against Slitrk3, the z-score was inactive: -0.0319.

Turning to GGGAGACCCAAUGUCAUCATT against Dtx3, the z-score was inactive: 1.19.

For GGAUUUUAAAAUUCCCAGUTT against Usp33, the z-score is inactive: -0.0193.

As for “CCUCUGAGUGGAACACCUATT against 6330577E15Rik”, the z-score is inactive: -1.53.

As for “GGAGAGAAGAAAAAAAGAATT against 5830434P21Rik”, the z-score was inactive: -0.124.

With “GGCUACAGCAGCAAUUACATT against 3110050K21Rik”, the z-score is inactive: 1.32.

CCUGAGGAACUCCAACCAATT against Ltbp4: the z-score is inactive: -0.161.

As to CCUUGUAGCUCUUUAUAAATT against Strn, the z-score is inactive: 2.21.

Consider GGCAGCAAGACAACUUUUGTT against Foxp2, for which the z-score was inactive: 0.451.

Consider GGAUUUGGGACUAAUUACGTT against Hsd17b7, for which the z-score is inactive: -1.58.

For “GGACAGCUGGCUUCUAAAUTT against 4933403M22Rik”, the z-score was inactive: 0.822.

For the sequence “CGUGUCUGUUCUCGUUCUGTT against 0610043B10Rik”, the z-score is inactive: 0.338.

Turning to “CCUUAUUUCGAGCUGUGAATT against 1810030N24Rik”, the z-score is inactive: -0.583.

For “GCCUUACUCUCUCAGUCCUTT against D930018N13”, the z-score was inactive: -1.82.

Turning to GGGUUUCUUGUUUCUUAGATT against Aldh6a1, the z-score is inactive: -0.568.

As for GGCUAAAAUCCAUGACAUUTT against Hspa1l, the z-score was inactive: 1.02.

Regarding GGAUUCUAUGACAAAGACATT against Ddx3x, the z-score is inactive: -2.15.

On to GGAAUACCAGGAAAAUAGUTT against Chm, for which the z-score is inactive: 0.127.

GGUGGAAAGUAUCGUUGACTT against Cdyl: the z-score is inactive: -0.352.

As to GGUGGUUUAAAAAACUGCUTT against Faah, the z-score is inactive: -0.97.

GGUUCUACUUCAGCUGCCUTT against Asah3: the z-score is inactive: -0.442.

Regarding GGGAAACUCGAGAUGUGCATT against Ankmy2, the z-score is inactive: 1.2.

As for “GGUCCUACUGAAAACGCAUTT against 6330442E10Rik”, the z-score was inactive: 0.452.

As to “GACAAAUAGUGCAGGAGGATT against 2310069N01Rik”, the z-score was inactive: 0.444.

Consider GCGAGCUCGAUUGAAAACUTT against Dlgh3, for which the z-score was inactive: 1.23.

Consider GGACAUGUGGAAAUGGAUATT against Arhgap4, for which the z-score is inactive: 0.234.

Take GCCAAUAGCUCCAGCUUGATT against Olfr668: the z-score is inactive: -0.256.

As to “CCGAAGCCUUGAAAGCAGUTT against 2810403P18Rik”, the z-score was inactive: 1.33.

For GGAGUGUUUAAAAGAGAAGTT against Mns1, the z-score is inactive: -0.443.

CCAGAAUUUGUGAAAUCCGTT against Dner: the z-score is inactive: 1.76.

As to GGUGUUGGAGCAGCUCACATT against Rpl11, the z-score is inactive: -1.55.

Regarding “GCCCAUGAAUUUUUACUUATT against C330019G07Rik”, the z-score was inactive: 0.714.

Consider GGACACCUGAAGUUAGUUUTT against Ndufaf1, for which the z-score was inactive: 0.752.

Consider GGAAUCAUUAAAACUCUCCTT against Ccr3, for which the z-score is inactive: -0.071.

Take CCGUUGGAGGUAAUUAGGATT against Dot1l: the z-score is inactive: 1.03.

On to GGAGUCCACUAAAGUCCUATT against Fmnl3, for which the z-score is inactive: -0.887.

Turning to CCACUAUGUUCUCUGGAUATT against Llglh, the z-score is inactive: -0.783.

In the case of GCGCGCUAAAAUGGAUGGCTT against Kng2, the z-score was inactive: 0.346.

As to GGAUUUUGCACUAUAACAATT against Wig1, the z-score is inactive: 1.52.

On to GGAAGAAGAAGAUAAAGCGTT against Gprk6, for which the z-score is inactive: 0.408.

Turning to GAAAGCAUUUAAUGCCCAATT against V1rg7, the z-score was inactive: 0.125.

On to GUACACUCAGGCUGAGGGUTT against Acyp1, for which the z-score was inactive: -1.09.

Turning to GCUCAUUUGUUUCCAAUAATT against Maf1, the z-score is inactive: -0.212.

On to GGUCGAAAGUCAACUCAGUTT against BC045600, for which the z-score was inactive: -0.0753.

On to GCGAAAGACGAUCAAAACCTT against Scn1a, for which the z-score was inactive: 0.909.

Consider CCUUAUCUAUAACUCUGCUTT against Tirap, for which the z-score was inactive: 1.31.

Take GCUAUAUAAAGGCUGAGUATT against Emilin3: the z-score was inactive: 0.704.

For the sequence GGUCAUGAACUUCACAAUUTT against Sgcd, the z-score is inactive: 1.42.

On to GGAAAUAUUACCUUUGUACTT against Sp3, for which the z-score is inactive: -1.12.

For the sequence AGUUCACGUAGAACCACGCTT against Gm741, the z-score is inactive: -0.322.

For the sequence GGAAGUGAACCAGUUGAGATT against Pcdh7, the z-score was inactive: 1.79.

As for “GGCAAUGUGUGUCUACAGUTT against 4933411G11”, the z-score is inactive: -0.0784.

For the sequence GCACCUGGGCCUUUGAAUATT against Hes2, the z-score is inactive: 0.29.

Consider CGAACGUGAUGAGUUAUGGTT against V1rg8, for which the z-score is inactive: -0.455.

On to CAAUAACACUGGUGCCGACTT against LOC384813, for which the z-score was inactive: -0.00154.

Take GGCUUGUAAUCCUAGAUGUTT against Uble1a: the z-score is inactive: -1.42.

GGGAAUUAAACAAUAUUGCTT against Cd163: the z-score is inactive: 0.626.

In the case of GGACCAGAAUGCAACUCUUTT against Pex5, the z-score is inactive: -0.875.

“GGUGCCUGACCAAAAAGGATT against A830094I09Rik”: the z-score is active: 2.67.

Regarding “CCCACGGACUGGCCAGUAATT against 6430559E15Rik”, the z-score was inactive: -1.39.

As for CGCAUCCUAAGAAAUGACATT against Blvrb, the z-score is inactive: -0.0364.

GGAAGUUCUUCCUAAGUACTT against Hsf2: the z-score was inactive: -1.62.

In the case of CCAAAUACUGUUCAAGAUGTT against Lypla1, the z-score is inactive: 0.0916.

With GGCAGUAGAUGAAAAUAAATT against Nphp1, the z-score was inactive: 0.483.

As for CGCAGGUAAUUUGUUUGUGTT against Mtnr1b, the z-score was inactive: 0.0788.

As for GGAAAAAGCCAACAAUUUGTT against Spats1, the z-score was inactive: 0.851.

As to GGAGAUAAUCCUGAAUGGCTT against Hsd3b6, the z-score was inactive: -0.764.

As for GCGGUCUUUCUUUCUUCGATT against Sim2, the z-score was inactive: 2.35.

As to GGCCAGAGUAGCAACUGUATT against Mcpr1, the z-score is inactive: 1.19.

With “GGAAUUCCAUUCCAGUCGCTT against 1700012L04Rik”, the z-score is inactive: 0.605.

As for GCACCGGAUUGAUUUUGUCTT against Pcyt1a, the z-score was inactive: -0.342.

As for CGUGAAGAUGACCGAUGAUTT against Rpl10a, the z-score was inactive: -3.15.

For CGGGCUCACAGUUUCUACUTT against Ethe1, the z-score is inactive: -0.394.

In the case of CGCGAUCAUAGAUUGGGCUTT against Sec61b, the z-score was inactive: -0.637.

Turning to GGAACAAAGAUGUGUCUGGTT against Olfr31, the z-score was inactive: -0.234.

As to “CCUCUAGUAAAGAAAUAGATT against 2610019N13Rik”, the z-score was inactive: -2.5.

Take CGCAUUACUAUCACCAAAGTT against Samd4: the z-score was inactive: 0.265.

For CCACAGGGACAACAAACUATT against Arid3b, the z-score was inactive: 1.49.

Regarding GGAAAUUUUUCGCAUGACCTT against Bat1a, the z-score was inactive: -0.649.

With GCCGCUAGCAUGGUCUAUUTT against Apoa5, the z-score was inactive: 0.129.

Consider GGCCGUGACAAAAUAGUAGTT against V1re3, for which the z-score was inactive: -0.841.

Turning to GCUUUUAUGCCACAAAUGATT against Pon1, the z-score was inactive: -0.178.

For the sequence “GGAAAGACAUGUAAUAUGUTT against 0610038F07Rik”, the z-score was inactive: 1.05.

For the sequence GGUUUUACUCCUUUAAUGUTT against Cbfa2t3h, the z-score is inactive: 0.835.

As to GGCUCAGAUCAAGCCAAAGTT against Cldn10, the z-score is inactive: 1.1.

With “CCAGGCUAUUUGUAUGCUGTT against C030002J06Rik”, the z-score is inactive: -0.0319.

As to GGAUGAUGUGAUGAAGAUCTT against Fgfr4, the z-score was inactive: -0.773.

GCCAAAUACUUUUUUACCCTT against Slc38a2: the z-score was inactive: 1.96.

(Values after PubChem BioAssay AID1347423 (Functional Genomics Laboratory (NCATS/FGL), 2020).)
